Results are given in words; binding and its absence hold for the method and conditions named. Binding seen in cells or lysates may run through a third protein. Some results given as binding are weak or reduced against the parent protein; the word gives no strength. Sequences can lack the tags named with a protein.
T1: ACVR1, split beta-galactosidase fusion in U2OS cells (UniProt Q04771)
T1 sequence: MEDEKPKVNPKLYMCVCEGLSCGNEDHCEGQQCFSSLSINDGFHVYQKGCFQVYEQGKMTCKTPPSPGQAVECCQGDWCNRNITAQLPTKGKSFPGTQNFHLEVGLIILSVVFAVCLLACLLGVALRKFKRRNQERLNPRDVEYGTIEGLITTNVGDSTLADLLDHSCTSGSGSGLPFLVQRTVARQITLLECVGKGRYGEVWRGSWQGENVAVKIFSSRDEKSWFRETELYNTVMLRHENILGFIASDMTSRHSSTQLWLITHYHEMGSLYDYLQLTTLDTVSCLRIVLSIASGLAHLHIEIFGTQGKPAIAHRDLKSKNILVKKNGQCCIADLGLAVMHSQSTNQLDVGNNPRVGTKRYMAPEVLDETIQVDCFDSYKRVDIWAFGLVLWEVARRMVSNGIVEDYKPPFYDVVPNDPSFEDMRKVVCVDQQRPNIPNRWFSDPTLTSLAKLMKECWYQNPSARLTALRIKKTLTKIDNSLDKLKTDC

T2: TGFBR1, split beta-galactosidase fusion in U2OS cells (UniProt P36897)
T2 sequence: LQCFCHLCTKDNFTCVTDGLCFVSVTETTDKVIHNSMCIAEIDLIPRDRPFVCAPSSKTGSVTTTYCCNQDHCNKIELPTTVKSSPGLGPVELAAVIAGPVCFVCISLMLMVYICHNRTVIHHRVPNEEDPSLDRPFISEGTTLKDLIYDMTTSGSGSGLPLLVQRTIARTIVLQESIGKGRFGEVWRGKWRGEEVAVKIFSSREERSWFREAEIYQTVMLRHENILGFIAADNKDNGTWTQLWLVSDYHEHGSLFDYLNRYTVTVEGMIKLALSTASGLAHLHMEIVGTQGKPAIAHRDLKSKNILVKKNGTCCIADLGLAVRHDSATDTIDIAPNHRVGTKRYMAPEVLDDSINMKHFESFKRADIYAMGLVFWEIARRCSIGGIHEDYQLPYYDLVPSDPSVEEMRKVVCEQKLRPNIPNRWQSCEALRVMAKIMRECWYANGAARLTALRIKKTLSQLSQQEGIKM

T3: ACVR1, split beta-galactosidase fusion in U2OS cells, Q04771
T3 chain: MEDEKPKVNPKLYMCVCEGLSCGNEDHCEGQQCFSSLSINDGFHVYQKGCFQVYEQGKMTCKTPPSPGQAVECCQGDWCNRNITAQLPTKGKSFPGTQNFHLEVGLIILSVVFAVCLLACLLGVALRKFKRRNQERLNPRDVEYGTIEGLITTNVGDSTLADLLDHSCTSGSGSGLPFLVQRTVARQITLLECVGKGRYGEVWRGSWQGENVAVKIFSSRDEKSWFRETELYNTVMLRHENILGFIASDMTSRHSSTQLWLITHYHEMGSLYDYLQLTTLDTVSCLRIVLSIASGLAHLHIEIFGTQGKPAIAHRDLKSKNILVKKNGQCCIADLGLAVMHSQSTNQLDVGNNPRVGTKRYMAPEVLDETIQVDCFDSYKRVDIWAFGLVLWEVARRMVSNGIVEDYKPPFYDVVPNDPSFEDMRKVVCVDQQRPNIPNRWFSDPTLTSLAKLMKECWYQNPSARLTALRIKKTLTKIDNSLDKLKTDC

T4: TGFBR1, split beta-galactosidase fusion in U2OS cells, P36897
T4 chain: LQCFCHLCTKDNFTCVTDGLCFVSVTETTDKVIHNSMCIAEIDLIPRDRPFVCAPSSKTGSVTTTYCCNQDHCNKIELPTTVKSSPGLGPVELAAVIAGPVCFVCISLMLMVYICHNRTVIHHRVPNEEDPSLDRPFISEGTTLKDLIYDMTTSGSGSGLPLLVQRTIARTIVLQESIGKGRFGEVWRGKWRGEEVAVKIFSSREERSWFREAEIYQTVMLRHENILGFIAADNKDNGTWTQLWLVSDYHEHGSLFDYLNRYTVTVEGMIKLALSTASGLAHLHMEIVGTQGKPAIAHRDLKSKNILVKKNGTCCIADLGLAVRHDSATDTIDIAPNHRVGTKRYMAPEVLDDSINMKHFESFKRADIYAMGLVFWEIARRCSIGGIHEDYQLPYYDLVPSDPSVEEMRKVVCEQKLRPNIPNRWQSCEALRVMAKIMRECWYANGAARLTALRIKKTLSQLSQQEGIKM


What was measured:
Assay in all cases: split reporter
[1] = biological target: T1, ACVR1, split beta-galactosidase fusion in U2OS cells
[2] = biological target: T2, TGFBR1, split beta-galactosidase fusion in U2OS cells
[3] = biological target: T3, ACVR1, split beta-galactosidase fusion …; details: remark: other sources report otherwise
[4] = biological target: T4, TGFBR1, split beta-galactosidase fusion …; details: remark: other sources report otherwise

binding [1]	binding [2]	binding [3]	binding [4]	Binder
binds weakly	binds	–	–	Activin A.ΔD406 (ligand) GLECDGKVNICCKKQFFVSFKDIGWNDWIIAPSGYHANYCEGECPSHIAGTSGSSLSFHSTVINHYRMRGHSPFANLKSCCVPTKLRPMSMLYYDGQNIIKKDIQNMIVEECGCS
–	–	binds	binds	Activin A (wild type, mature dimer), P08476 311-426 (ligand) GLECDGKVNICCKKQFFVSFKDIGWNDWIIAPSGYHANYCEGECPSHIAGTSGSSLSFHSTVINHYRMRGHSPFANLKSCCVPTKLRPMSMLYYDDGQNIIKKDIQNMIVEECGCS
